Assay results reported in PubChem BioAssay AID2517 (National Center for Advancing Translational Sciences (NCATS), 2010).
In all, about 350,000 compounds went through this assay and about 1,200 (0.34%) were called active. The inconclusive results got no clear call from the source; some entries with a clear call stand among them for comparison. Calls come from the whole dose curve; as a rule, active = well fitted inhibition curve with a large enough effect; inconclusive = small, poorly fitted or top-dose-only effect; inactive = no such curve, though single readings can be large or run the other way. Where the call is inconclusive, the potency comes from a doubtful curve fit.

Chains of the proteins cited; added tags and fusions are not shown.
UniProt P27695, whole entry, looked up: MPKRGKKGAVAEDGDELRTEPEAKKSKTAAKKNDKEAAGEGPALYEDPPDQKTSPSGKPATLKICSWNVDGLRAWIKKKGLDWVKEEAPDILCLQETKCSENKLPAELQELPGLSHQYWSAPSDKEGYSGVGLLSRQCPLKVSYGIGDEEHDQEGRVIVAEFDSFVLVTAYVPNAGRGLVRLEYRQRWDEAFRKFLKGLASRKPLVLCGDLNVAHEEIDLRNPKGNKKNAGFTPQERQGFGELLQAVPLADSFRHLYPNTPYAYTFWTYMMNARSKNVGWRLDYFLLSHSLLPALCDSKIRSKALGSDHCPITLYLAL

biological target: DNA repair nuclease/redox regulator APEX1 (Homo sapiens) (UniProt P27695); test: qHTS Assay for Inhibitors of the Human Apurinic/apyrimidinic Endonuclease 1 (APE1); settings: recombinant APE1, TAMRA/BHQ-2 abasic DNA cleavage fluorescence; activity change, negative = inhibition: at 65.8 µM (top of the series); note: nearly all actives have a fitted effect of over 55% in size;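 for activity change, negative = inhibition: plate controls were vehicle for no effect and reference inhibitor for full effect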
Method in brief: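 0.75 nM APE1 + cpd, 15 min RT; start w/ 50 nM TAMRA/BHQ-2 THF-abasic dsDNA; kinetic fluor 525/598 nm ×3 reads @60 s; Δ(read3−read1); normalized to DMSO and NSC13755 control wells.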
Potency is the fitted concentration of half-maximal effect.

| Structure (SMILES) | Potency | activity change, negative = inhibition |
| --- | --- | --- |
| O=C(COc1ccccc1Cl)NCc1ccncc1 | inconclusive: 44.7 µM [inhibitor, single point] |  |
| Clc1ccc(CNc2cnccn2)cc1Cl |  | inactive: 46.6% |
| O=C(CCNC(=O)c1ccccc1Cl)NN=Cc1ccco1 |  | inactive: -5.79% |
| COc1ccc(C(=O)n2nc(-c3ccc(OC)cc3)nc2N)cc1 | inconclusive: 5.01 µM [inhibitor, single point] |  |
| COc1cc(/C=C2\C(C)=C(C#N)c3nc(N)c(C#N)c(C)c32)ccc1OCC(=O)O | inconclusive: 2.82 µM [inhibitor, partial curve, poor fit] |  |
| O=C(NC1=C(NC2CCS(=O)(=O)C2)C(=O)c2ccccc2C1=O)c1ccccc1 (stereo not drawn) |  | inactive: -3.63% |
| COC(=O)[C@@]1(Cc2ccccc2)[C@H]2c3cc(C(=O)N4CCCC4)n(CCSCCO)c3C[C@H]2CN1C(=O)c1ccccc1 | inconclusive: 4.47 µM [inhibitor, partial curve] |  |
| Cc1cc(N2CCCC2)c(C)cc1C=O |  | inactive: 0.306% |
| N=C1/C(=C\c2ccc(-c3ccc(C(=O)O)cc3)o2)C(=O)N=C2SC=C(c3ccccc3)N12 |  | inactive: -11.6% |
| O=[N+]([O-])c1ccc(Sc2ccccn2)nc1 | inconclusive: 7.08 µM [inhibitor, single point] |  |
| Oc1ccc(/C=N/N=C(c2ccccc2)c2ccccc2)c(O)c1O | inconclusive: 5.62 µM [inhibitor, full curve] |  |
| COc1ccc(-c2noc(CSc3ccccc3)n2)cc1OC | inconclusive: 44.7 µM [inhibitor, single point] |  |
| CC(=O)c1ccc(N2CCN(C(=O)Cc3n[nH]c(=O)c4ccccc34)CC2)cc1 | inconclusive: 7.08 µM [inhibitor, single point] |  |
| CC1=CC(C)(C)NC(=S)N1c1cccc2cc(S(=O)(=O)O)ccc12 | inconclusive: 44.7 µM [inhibitor, single point] |  |
| CCC(=O)c1ccc(OCC(=O)N2CCN(S(=O)(=O)c3ccc(Cl)s3)CC2)cc1 |  | inactive: 5.76% |
| O=C(Nc1nc2c(s1)CCCC2)c1cc2n(n1)C(C(F)(F)F)CC(C1CC1)N2 (stereo not drawn) | inconclusive: 0.0398 µM [inhibitor, full curve, poor fit] |  |
| C=CCNC(=S)N1CC2(C)CN(C(=S)NCC=C)CC(C)(C1)C2=O |  | inactive: 2.37% |
| C/C=C/OC(=O)NC(c1ccccc1)[C@]1(C(C)=O)CCCC1=O (stereo partly drawn) | inconclusive: 2.51 µM [inhibitor, partial curve] |  |
| COc1ccc(S(=O)(=O)c2c[nH]c(=S)[nH]c2=O)cc1Cl | inconclusive: 26.7 µM [inhibitor, single point] |  |
| Cc1cc(N/N=C2/CCCc3ccccc32)nc2ccccc12 | inconclusive: 5.01 µM [inhibitor, single point] |  |
| O=C(CCCCn1c(=O)[nH]c2ccccc2c1=O)NC1CCN(Cc2ccccc2)CC1 | inconclusive: 3.16 µM [inhibitor, single point] |  |
| CCCN(CCC)C(=O)c1ccc2c(=O)n(Cc3ccco3)c(=S)[nH]c2c1 | inconclusive: 44.7 µM [inhibitor, single point] |  |
| COc1cc2c3cc1OCc1c(O)c(OC)cc4c1C(Cc1ccc(cc1)Oc1cc(ccc1O)CC3N(C)CC2)N(C)CC4 (stereo not drawn) |  | inactive: -0.581% |

5 entries out of the list, sorted by number of heavy atoms, ascending:

| Structure (SMILES) | Potency | activity change, negative = inhibition |
| --- | --- | --- |
| O=C(COc1ccccc1Cl)NCc1ccncc1 | inconclusive: 44.7 µM [inhibitor, single point] |  |
| COc1ccc(S(=O)(=O)c2c[nH]c(=S)[nH]c2=O)cc1Cl | inconclusive: 26.7 µM [inhibitor, single point] |  |
| C/C=C/OC(=O)NC(c1ccccc1)[C@]1(C(C)=O)CCCC1=O (stereo partly drawn) | inconclusive: 2.51 µM [inhibitor, partial curve] |  |
| O=C(Nc1nc2c(s1)CCCC2)c1cc2n(n1)C(C(F)(F)F)CC(C1CC1)N2 (stereo not drawn) | inconclusive: 0.0398 µM [inhibitor, full curve, poor fit] |  |
| CCC(=O)c1ccc(OCC(=O)N2CCN(S(=O)(=O)c3ccc(Cl)s3)CC2)cc1 |  | inactive: 5.76% |

Next part:

| Structure (SMILES) | Potency | activity change, negative = inhibition |
| --- | --- | --- |
| Cc1cc(C)nc(SCC(=O)OCC(=O)N(C)c2c(N)n(Cc3ccccc3)c(=O)[nH]c2=O)n1 | inconclusive: 37.7 µM [inhibitor, single point] |  |
| O=C(O)c1cc(=O)c2c(Cl)cc(Cl)cc2[nH]1 | inactive |  |
| CN(CC(=O)Nc1cccc(F)c1)C(=O)c1cccc(-n2cccc2)c1 | active: 3.36 µM |  |
| CN1/C(=C/C=C(C#N)C#N)C=Cc2ccccc21 | inconclusive: 3.55 µM [inhibitor, single point] |  |
| COCCNc1nnc(SC(C)C(=O)Nc2ccc(-c3nc4ccc(C)cc4s3)cc2)s1 (stereo not drawn) | inconclusive: 28.2 µM [inhibitor, single point] |  |
| O=C(c1cccc2ccccc12)N1CCCCC1 |  | inactive: 25.2% |
| CC(C(=O)Nc1cccc([N+](=O)[O-])c1)N(c1ccccc1)S(C)(=O)=O (stereo not drawn) | inconclusive: 44.7 µM [inhibitor, single point] |  |
| O=C(/C=C/c1ccccc1)c1cc(Br)ccc(=O)c1O | inconclusive: 2.24 µM [inhibitor, full curve] |  |
| COc1ccc(O)c(C(=O)c2cc(SCC(=O)O)c3nc4sc5c(c4c(=O)n3c2)CCCC5)c1 | inconclusive: 22.4 µM [inhibitor, single point] |  |
| [O-]/[N+](=C\c1ccccc1)c1ccccc1 |  | inconclusive: 0.128% [inhibitor] |
| O=C(N/N=C/c1ccc([N+](=O)[O-])o1)c1sc2ccccc2c1Cl |  | inactive: 0.692% |
| CCOc1ccc(N2CC(C(=O)Nc3ccc(N4CCOCC4)cc3)CC2=O)cc1 (stereo not drawn) | inconclusive: 44.7 µM [inhibitor, partial curve] |  |
| Cc1ccc(C(=O)N/N=C\C2CC=CCC2)cc1[N+](=O)[O-] (stereo not drawn) |  | inactive: 2.55% |
| CSc1nc2nc3c(cc2c(=O)n1-c1ccccc1C)CCCC3 | inconclusive: 20 µM [inhibitor, partial curve] |  |
| CCOc1ccc(CNC(=O)c2ccc(Sc3ccc(C)cc3)c(NC(C)=O)c2)cc1 | inconclusive: 50.1 µM [inhibitor, partial curve] |  |
| CCOC(=O)C(NC(=O)Nc1ccc(Cl)cn1)(Oc1ccccc1)C(F)(F)F (stereo not drawn) | inconclusive: 17.8 µM [inhibitor, partial curve] |  |
| CCCCCCCC/C=C\CCCCCCCC(=O)N(CCO)CCO | inconclusive: 31.6 µM [inhibitor, partial curve] |  |
| O=Cc1coc2ccc3ccccc3c2c1=O |  | inactive: 4.91% |
| O=[N+]([O-])c1ccccc1-c1ccc(C(=S)N2CCCC2)o1 |  | inactive: -9.26% |
| CC(C)(C)NC(=O)C(c1cccnc1)N(C(=O)c1ccc(Cl)nc1)C1CCCC1 (stereo not drawn) | inconclusive: 7.08 µM [inhibitor, single point] |  |
| C=CCN=c1scc(C)n1/N=C/c1ccc(O)c(O)c1 | inconclusive: 17.8 µM [inhibitor, partial curve] |  |
| S=C(Nc1ccc2nsnc2c1)N1CCCC1 | inconclusive: 15.8 µM [inhibitor, partial curve] |  |
| N#Cc1ccc(C23CC4(C2)[C@H](CN(Cc2cccnc2)[C@@H]4c2ccccc2)C3c2ccccc2)cc1 (stereo partly drawn) | inconclusive: 0.316 µM [inhibitor, full curve, poor fit] |  |

| Structure (SMILES) | Potency | activity change, negative = inhibition |
| --- | --- | --- |
| O=C(O)/C=C/C(=O)Nc1ccc2c(c1)NC(=O)CO2 | inconclusive: 10 µM [inhibitor, full curve, poor fit] |  |
| COc1ccc(C(F)(F)F)cc1N/C=C/c1nnnn1-c1ccc(C)cc1 | inconclusive: 3.98 µM [inhibitor, partial curve] |  |
| Cc1ccc(NC(=O)CN2C(=O)S/C(=C\c3cc(C)n(-c4cccc(C(=O)O)c4)c3C)C2=O)cc1 |  | inactive: -3.38% |
| O=C(N/N=C/c1cccnc1)c1ccc(NC(=O)c2cccc(Cl)c2)cc1 |  | inactive: -12.7% |
| O=C(Nc1ccc(C(=O)O)cc1)/C(=C\c1ccc([N+](=O)[O-])cc1)NC(=O)c1ccc(Br)cc1 | inconclusive: 0.0056 µM [inhibitor, full curve, poor fit] |  |
| COc1ccc(C(=O)NN(C)c2nc(C(F)(F)F)nc3ccccc23)cc1 | inconclusive: 44.7 µM [inhibitor, single point] |  |
| CSc1nnc(-c2ccco2)c(-c2ccco2)n1 | inconclusive: 28.2 µM [inhibitor, partial curve] |  |
| Cc1occc1C(=O)NCc1cccc(CNC(=O)c2ccoc2C)c1 | inconclusive: 31.6 µM [inhibitor, single point] |  |
| CCCOc1ccc(C(=O)NNC(=S)NC(=O)c2cc(-c3ccc(Cl)cc3)nc3ccccc23)cc1 | inconclusive: 1.58 µM [inhibitor, full curve] |  |
| Cc1c(C(=O)NCc2ccc3c(c2)cc(C)n3C)cccc1[N+](=O)[O-] | inconclusive: 39.8 µM [inhibitor, single point] |  |
| C#CCOCCOCCOCCNc1nc(N2CCN(C(=O)[C@H](CCCCN)n3cc([C@@H](N)C(C)CC)nn3)CC2)nc(N2CCN(C(=O)[C@H](CCCCN)n3cc([C@@H](N)CO)nn3)CC2)n1 (stereo partly drawn) | inconclusive: 25.1 µM [inhibitor, single point] |  |
| Cc1ccccc1NC(=O)Cc1nc(COC(=O)c2ccc(S(C)(=O)=O)c([N+](=O)[O-])c2)cs1 |  | inactive: 21.3% |
| CCN(C(=O)c1ccc2c(Cl)c3c(nc2c1)CCC3)c1ccc(C)c(C)c1 | inconclusive: 3.16 µM [inhibitor, partial curve] |  |
| O=C(NC(CSCc1ccccc1)C(=O)N/N=C/c1ccc(O)cc1O)c1ccc([N+](=O)[O-])cc1 (stereo not drawn) | inconclusive: 25.1 µM [inhibitor, single point] |  |
| O=C(CC12CCC(CC1)C2)NCc1ccc2c(c1)OCO2 | inconclusive: 44.7 µM [inhibitor, single point] |  |
| C=C(C)CN(CC)c1nc(N)c(C#N)c(CC#N)c1C#N |  | inactive: -3.11% |
| Cc1ccc(-n2nnnc2SCc2nc3sc(C)c(C)c3c(=O)[nH]2)cc1 |  | inactive: -1.29% |
| O=C(O)c1ccccc1-c1ccc(/C=c2\sc3nc4cc(Br)cnc4n3c2=O)o1 | active: 22.4 µM |  |
| c1ccc2c(c1)CCN(C1=Nc3cccc4cccc1c34)C2 | inconclusive: 28.2 µM [inhibitor, single point] |  |
| O=C(COC(=O)c1cnccn1)Nc1ncc(Cl)cc1Cl |  | inactive: -7.38% |
| CCOc1cc(/C=C(\C#N)C(=O)Nc2cccc(C(=O)O)c2)cc(Br)c1OC(=O)c1ccc(OC)cc1 |  | inactive: -2.62% |
| CC(=O)NC(Cc1ccccc1)C(=O)N1CCN(C(=S)NCC(C)C)CC1 (stereo not drawn) | inconclusive: 0.562 µM [inhibitor, full curve] |  |
